Results from PMC11130726.
No constants are given. Whether binding was seen depends on the method and setting. Binding seen in cells or lysates may run through a third protein. Some entries that bind do so weakly or less than the wild type.

Chains of the proteins cited; added tags and fusions are not shown.
UniProt Q6ZW49: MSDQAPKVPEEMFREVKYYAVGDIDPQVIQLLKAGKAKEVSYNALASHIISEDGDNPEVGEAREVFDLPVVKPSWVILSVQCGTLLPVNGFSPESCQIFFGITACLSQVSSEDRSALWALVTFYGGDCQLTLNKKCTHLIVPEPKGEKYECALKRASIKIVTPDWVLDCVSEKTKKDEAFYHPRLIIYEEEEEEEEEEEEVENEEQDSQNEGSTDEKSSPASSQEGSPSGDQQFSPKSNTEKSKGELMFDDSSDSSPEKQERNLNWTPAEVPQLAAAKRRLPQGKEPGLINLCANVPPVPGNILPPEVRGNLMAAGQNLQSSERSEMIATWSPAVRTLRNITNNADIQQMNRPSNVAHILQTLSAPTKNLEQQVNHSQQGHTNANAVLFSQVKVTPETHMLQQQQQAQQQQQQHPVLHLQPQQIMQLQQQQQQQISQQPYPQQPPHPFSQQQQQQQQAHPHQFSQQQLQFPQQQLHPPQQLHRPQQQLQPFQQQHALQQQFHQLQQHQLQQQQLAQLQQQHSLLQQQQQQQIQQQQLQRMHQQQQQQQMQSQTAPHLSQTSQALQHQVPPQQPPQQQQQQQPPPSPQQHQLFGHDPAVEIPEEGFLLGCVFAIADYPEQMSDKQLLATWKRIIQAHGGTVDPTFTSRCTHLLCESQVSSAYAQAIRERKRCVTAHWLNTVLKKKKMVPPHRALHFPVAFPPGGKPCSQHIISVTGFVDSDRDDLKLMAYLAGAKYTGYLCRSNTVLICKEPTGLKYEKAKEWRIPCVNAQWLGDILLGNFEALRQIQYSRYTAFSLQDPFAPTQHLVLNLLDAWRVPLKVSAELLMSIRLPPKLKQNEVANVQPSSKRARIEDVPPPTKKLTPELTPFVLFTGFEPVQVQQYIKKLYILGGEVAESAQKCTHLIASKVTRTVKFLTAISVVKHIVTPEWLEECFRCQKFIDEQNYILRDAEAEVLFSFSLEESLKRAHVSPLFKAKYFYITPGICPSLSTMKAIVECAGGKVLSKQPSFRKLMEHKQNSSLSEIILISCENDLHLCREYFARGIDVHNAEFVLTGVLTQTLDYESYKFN
UniProt Q8IY92: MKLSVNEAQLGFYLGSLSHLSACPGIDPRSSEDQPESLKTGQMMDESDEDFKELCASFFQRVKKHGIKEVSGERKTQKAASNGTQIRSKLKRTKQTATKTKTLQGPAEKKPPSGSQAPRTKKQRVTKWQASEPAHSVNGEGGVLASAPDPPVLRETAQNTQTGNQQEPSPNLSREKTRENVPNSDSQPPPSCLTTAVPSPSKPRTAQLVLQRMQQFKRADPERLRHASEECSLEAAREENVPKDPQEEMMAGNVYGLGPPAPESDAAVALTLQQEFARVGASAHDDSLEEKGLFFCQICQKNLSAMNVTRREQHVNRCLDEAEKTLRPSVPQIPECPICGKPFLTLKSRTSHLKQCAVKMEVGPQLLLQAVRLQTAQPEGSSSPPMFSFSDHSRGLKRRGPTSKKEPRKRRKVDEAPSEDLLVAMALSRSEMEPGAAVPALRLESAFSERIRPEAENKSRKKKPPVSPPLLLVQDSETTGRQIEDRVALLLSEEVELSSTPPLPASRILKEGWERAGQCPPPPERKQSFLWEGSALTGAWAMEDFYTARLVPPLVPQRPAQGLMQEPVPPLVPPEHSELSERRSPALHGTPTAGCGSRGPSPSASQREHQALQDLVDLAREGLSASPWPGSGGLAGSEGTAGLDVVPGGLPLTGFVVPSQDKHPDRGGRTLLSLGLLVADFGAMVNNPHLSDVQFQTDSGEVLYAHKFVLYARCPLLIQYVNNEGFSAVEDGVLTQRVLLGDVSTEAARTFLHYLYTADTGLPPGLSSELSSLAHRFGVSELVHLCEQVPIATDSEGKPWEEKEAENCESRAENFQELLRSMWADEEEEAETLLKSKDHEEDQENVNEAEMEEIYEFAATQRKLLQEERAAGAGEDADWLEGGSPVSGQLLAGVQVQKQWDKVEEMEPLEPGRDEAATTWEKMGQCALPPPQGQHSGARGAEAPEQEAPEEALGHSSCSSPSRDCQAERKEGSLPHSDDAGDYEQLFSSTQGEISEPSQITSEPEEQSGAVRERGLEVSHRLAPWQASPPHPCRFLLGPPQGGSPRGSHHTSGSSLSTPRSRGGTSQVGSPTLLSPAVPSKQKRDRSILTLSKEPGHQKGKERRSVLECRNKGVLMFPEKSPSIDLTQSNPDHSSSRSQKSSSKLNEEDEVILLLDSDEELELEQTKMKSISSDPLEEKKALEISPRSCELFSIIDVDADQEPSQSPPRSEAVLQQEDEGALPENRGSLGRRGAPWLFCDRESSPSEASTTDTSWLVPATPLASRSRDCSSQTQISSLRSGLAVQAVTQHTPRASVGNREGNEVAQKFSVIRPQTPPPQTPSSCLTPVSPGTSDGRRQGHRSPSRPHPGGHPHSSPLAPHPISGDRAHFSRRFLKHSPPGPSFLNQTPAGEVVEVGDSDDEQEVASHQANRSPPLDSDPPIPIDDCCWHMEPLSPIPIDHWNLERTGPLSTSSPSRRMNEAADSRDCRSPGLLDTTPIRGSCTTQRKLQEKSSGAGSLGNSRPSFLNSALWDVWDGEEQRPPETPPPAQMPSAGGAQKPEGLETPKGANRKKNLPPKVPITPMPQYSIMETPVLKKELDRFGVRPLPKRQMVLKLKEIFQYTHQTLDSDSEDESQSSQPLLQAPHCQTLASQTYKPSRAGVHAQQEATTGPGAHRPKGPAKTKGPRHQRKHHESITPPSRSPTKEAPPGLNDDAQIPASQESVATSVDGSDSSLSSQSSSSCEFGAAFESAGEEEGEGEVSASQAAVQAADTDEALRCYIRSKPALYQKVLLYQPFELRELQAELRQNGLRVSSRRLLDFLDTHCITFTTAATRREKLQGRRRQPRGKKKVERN

Target: FLAG-PTIP^WT (Pax2 transactivation domain interacting protein; PAX interacting protein 1) (human (from 293T cDNA)) (UniProt Q6ZW49)
Assay: co-IP; co-IP of PTIP with nucleases that act at the replication fork (Fig. S2, A-C); cells, bait and tags not shown

Q: For SLX4 (from UniProt Q8IY92 1-1834), which binding is on record?
A: The binding was “binds”.
